Source: the supplement of paper PMC3334620
Whole data set: some 33,000 sequences, median “E-score (-0.5 to 0.5)” near -8e-05, cut for the highest 2% near 0.23. Some of the results follow.

These sequences were tested against T1, Nrg2 (UniProt P38082) (assay: PBM E-score (8-mer binding enrichment) (E-score (-0.5 to 0.5)); higher = stronger / more preferred TF binding). Details: protein concentration: 100 nM; construct: GST-full length.
T1 sequence: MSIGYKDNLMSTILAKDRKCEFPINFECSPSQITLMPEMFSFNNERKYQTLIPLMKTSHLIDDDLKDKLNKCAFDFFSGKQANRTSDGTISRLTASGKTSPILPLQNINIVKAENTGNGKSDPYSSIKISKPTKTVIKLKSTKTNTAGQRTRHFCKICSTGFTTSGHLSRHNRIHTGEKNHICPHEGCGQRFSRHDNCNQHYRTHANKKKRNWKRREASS
Procedure: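 Universal 'all 10-mer' protein binding microarrays (Agilent AMADID 015681) probed with GST-tagged S. cerevisiae TFs (full-length or DBD) made by in vitro transcription/translation (PURExpress), about 100-200 nM. Bound TF was detected with fluorescent anti-GST. Each ungapped 8-mer (which stands for itself and its reverse complement) is scored by the PBM enrichment score (E-score), a modified Wilcoxon-Mann-Whitney statistic from -0.5 to +0.5, computed with the Universal PBM Analysis Suite. Scale: above 0.35 generally sequence-specific binding.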

Sequence | PBM E-score
GCCCCCCA | -0.469
ATGCTGCA | -0.0148
ACTTTTCT | -0.0205
GCTACAGC | 0.049
CACACAAC | 0.0726
ACTGCCGA | 0.148
AAACAGTT | 0.0716
GATTGGCC | -0.00877
TAACTAGA | 0.256
AATAATGG | 0.136
TGTAAGAA | 0.062
CAATCACG | 0.0288
ATAAACAG | 0.0593
GGTAGATA | -0.00158
CGGTTATC | -0.102
ACTGAATA | 0.0684
AACCCGCT | -0.126
CTTAGGTA | -0.0168
CGAGGTAA | 0.013
TCCGGCAA | -0.0255
AGAGACCA | -0.0477
AACGACTA | -0.00846
ATGATACA | 0.182
GGCGTAAC | -0.192
AAATACTT | 0.0648

Sequence | PBM E-score
ACATACGC | 0.0681
CTATGGGA | -0.0453
AAGTGCCC | -0.0791
ACCTTTCA | -0.0238
ACGCGGCG | 0.0199
GACGATCC | 0.0514
GTCCTAGA | -0.201
TGACGTCA | 0.279
AAACCATG | 0.0105
GAACTACC | 0.0502
ATCATAGC | 0.0417
AGAACAGC | 0.0639
CTAATCTA | 0.026
CTGCTGAC | 0.0401
GAACACGC | 0.0886
ACGCTCAC | 0.046
GTCAGATA | -0.0646
GATACAGC | -0.0962
CTGATTGC | 0.0232
TCTTAAGA | 0.139
CTCGGAGA | 0.0113
AAATCGGG | 0.151
ATATCTAA | 0.148
CTCCAATC | -0.126
ATATTGTC | 0.178

Sequence | PBM E-score
CAGACACG | -0.234
GCCCAACC | 0.0486
AACGTGTG | -0.227
ATGCTAAG | -0.00385
AAGAGCCT | -0.291
CGGAAACG | -0.0114
AGTGAGGG | -0.103
CTCCAGTC | -0.0457
ACCTTTTG | -0.157
ACGGCATA | 0.201
ATCCACTC | 0.16
TCGAGCCA | -0.0891
AACAGTTG | -0.0713
ACCCGCCT | -0.192
ATTAGCGC | 0.144
AAGGACTC | -0.0561
AAACGTAG | -0.0255
AAGGAGAG | -0.23
GCAATTAA | 0.0965
ACGTGATC | -0.0893
ATGTTCGG | 0.157
CAAACATA | 0.0325
AGACCAAA | 0.0133
CTATACTA | 0.111
CTTCGTAC | -0.0544

Copied from the listing for reference:
Sequence | PBM E-score
CTGCTGAC | 0.0401
GAACACGC | 0.0886
ACGCTCAC | 0.046
GTCAGATA | -0.0646

Carrying on.

Sequence | PBM E-score
GAATCCGA | 0.0398
GATGTGGA | 0.0477
AGGTGAAC | 0.077
ACCTAACT | 0.149
CTACAAAC | 0.0676
ATCATTCC | 0.132
CCTCAACG | -0.159
GACCCCCA | -0.399
CTAGCCAG | -0.2
AAGCACAA | 0.06
CAGCATTA | -0.0471
AATCTCGC | 0.235
AACTTTTG | 0.128
GGCTATAC | -0.126
GGACCTGA | -0.0245
AAAGCTAA | -0.0819
ATGCAGGG | 0.181
AGGTCCGC | -0.0894
CGATCGCA | 0.215
CGCTGGGC | -0.112
ACAAATAA | 0.152
CCACTCGC | -0.0342
CAGTCGGG | -0.132
TACGCACA | 0.212
AGTAATCA | 0.0106

Sequence | PBM E-score
ATCCGTTA | 0.137
AGGATGCA | -0.0419
GAACGCAC | 0.0904
ACGTCCTA | 0.0273
CAAAGACA | -0.015
TATTCGGA | 0.189
TGGGCGAA | 0.0579
CGACCGAC | -0.0544
GAACCGGA | 0.0277
CCTGGTTA | -0.00802
ATATCCGG | 0.0451
ACAAATTG | 0.185
TCTCAGCA | -0.0563
GTACGCGA | 0.0455
GCTATCAC | 0.065
TGGCCACA | 0.15
TACGGTGA | 0.0911
CGCCCTCC | -0.199
AGCGGGCC | -0.0525
CTCTGCCC | 0.00382
AAGGACTA | -0.123
GCCAGGGC | 0.0111
CGTTCACA | 0.0411
CTCAGCAG | -0.101
AAGGTTGA | -0.0333

Sequence | PBM E-score
CCGAACAA | 0.0547
CACCAGGA | -0.0256
AGGGGGAA | -0.296
AATCTAGT | 0.0347
ACTTCTTC | -0.0215
GAGCAAGC | -0.089
AACTACAG | 0.0408
CCCCTCTA | -0.148
CCTGCTGA | 0.171
AAGGTCAC | -0.0104
TCAGAAAA | -0.0216
CGTATTAC | -0.0295
GAGTTTAA | 0.0623
GACCCTAA | 0.237
CGCTTGAC | 0.0173
CGGATGAC | -0.0636
CTCTGAAC | -0.14
CGCATTGA | 0.0701
ATTCAGGG | 0.367
ACTAGCGG | 0.00229
GGTGAAGA | -0.0891
ATCGGACG | -0.0401
CAAGGAAA | -0.0239
TAGAGTCA | -0.222
GTTTTCCA | 0.116

Some of the entries above, reformatted.
Sequence,PBM E-score
CGCTTGAC,0.0173
CGGATGAC,-0.0636

(next part)

Sequence | PBM E-score
ATGCTCCC | -0.18
CGCGACTA | 0.144
GGCCCTGA | 0.24
TATGTTAA | -0.127
CGCTCTAA | 0.00204
GACGAGAC | 0.0386
AAAAGACT | -0.269
AATGTCAT | -0.0736
TACTTGGA | 0.151
ATACAGCA | 0.0568
CAGCCGGG | -0.173
GTGACGGA | 0.0626
CGCAGGAC | -0.0809
CATATATG | 0.0123
TAGGCTGA | -0.1
AAAAGTTG | 0.127
TAGGGCCA | -0.0846
ACCGTCAG | -0.0681
CAAACTCA | 0.0998
CGCCAATC | -0.0209
CCCACTCG | -0.102
ACCTTTCC | -0.0859
ATTAGTTC | 0.158
CGAGGGGC | -0.109
ATCAAATC | 0.145

Sequence | PBM E-score
CAGGACAG | 0.0519
GAGGCCAA | 0.0475
CCGATTAC | 0.00664
AATTGAGA | 0.0993
TACCACTA | -0.00485
AAGAAACA | 0.195
ACCAGTAT | 0.0923
GGGCACCC | -0.137
AATATCGT | 0.131
GTAGACCA | -0.11
ATTGGATA | -0.00533
CGTTTCAA | -0.00866
TGCTAACA | -0.127
ATCTTATG | 0.0237
ACCTGGCA | -0.0498
AAATTTCA | -0.115
ACTGGGTA | 0.051
AGGGCAGG | 0.00494
CGGGAGGA | 0.0906
GATGGCGA | 0.0429
AGAATACA | 0.149
GAGACCAA | 0.241
CTACAGCA | 0.032
CAATGACA | 0.0886
GATCTTCA | 0.0364

Random excerpt: 6 entries already listed
Sequence | PBM E-score
CTAATCTA | 0.026
AGCGGGCC | -0.0525
GTCAGATA | -0.0646
ATCCACTC | 0.16
ATCCGTTA | 0.137
GGCCCTGA | 0.24

The results go on:

Sequence | PBM E-score
GCCTTTTA | -0.0752
ACTAAAAA | 0.0129
AATTAAGA | 0.0656
CGTTCTAG | 0.123
CTAGACAG | 0.0211
CTCGAAAG | 0.0195
ACTCCCAA | 0.0134
ACTAGTAC | 0.027
CGATCACA | 0.113
GAGACATA | 0.0701
GCATTCAA | 0.0965
GCTGTTGA | 0.0699
CCCTAATA | 0.202
GTGTGCAA | 0.0196
ACGATGAG | 0.0919
ATATTACG | 0.214
CGGACGCA | 0.0898
CCACCCCA | -0.035
CATAAGTA | 0.076
